Reference: patent US10442791B2, “DNA-PK inhibitors” (Vertex Pharmaceuticals Incorporated, priority 2012, dated 2019)
Some results were stated once for a whole list of compounds, not compound by compound. At least one compound was matched to its structure with a doubt left.

Amino acid sequences for entries named in this document (tags omitted).
UniProt P78527, whole entry: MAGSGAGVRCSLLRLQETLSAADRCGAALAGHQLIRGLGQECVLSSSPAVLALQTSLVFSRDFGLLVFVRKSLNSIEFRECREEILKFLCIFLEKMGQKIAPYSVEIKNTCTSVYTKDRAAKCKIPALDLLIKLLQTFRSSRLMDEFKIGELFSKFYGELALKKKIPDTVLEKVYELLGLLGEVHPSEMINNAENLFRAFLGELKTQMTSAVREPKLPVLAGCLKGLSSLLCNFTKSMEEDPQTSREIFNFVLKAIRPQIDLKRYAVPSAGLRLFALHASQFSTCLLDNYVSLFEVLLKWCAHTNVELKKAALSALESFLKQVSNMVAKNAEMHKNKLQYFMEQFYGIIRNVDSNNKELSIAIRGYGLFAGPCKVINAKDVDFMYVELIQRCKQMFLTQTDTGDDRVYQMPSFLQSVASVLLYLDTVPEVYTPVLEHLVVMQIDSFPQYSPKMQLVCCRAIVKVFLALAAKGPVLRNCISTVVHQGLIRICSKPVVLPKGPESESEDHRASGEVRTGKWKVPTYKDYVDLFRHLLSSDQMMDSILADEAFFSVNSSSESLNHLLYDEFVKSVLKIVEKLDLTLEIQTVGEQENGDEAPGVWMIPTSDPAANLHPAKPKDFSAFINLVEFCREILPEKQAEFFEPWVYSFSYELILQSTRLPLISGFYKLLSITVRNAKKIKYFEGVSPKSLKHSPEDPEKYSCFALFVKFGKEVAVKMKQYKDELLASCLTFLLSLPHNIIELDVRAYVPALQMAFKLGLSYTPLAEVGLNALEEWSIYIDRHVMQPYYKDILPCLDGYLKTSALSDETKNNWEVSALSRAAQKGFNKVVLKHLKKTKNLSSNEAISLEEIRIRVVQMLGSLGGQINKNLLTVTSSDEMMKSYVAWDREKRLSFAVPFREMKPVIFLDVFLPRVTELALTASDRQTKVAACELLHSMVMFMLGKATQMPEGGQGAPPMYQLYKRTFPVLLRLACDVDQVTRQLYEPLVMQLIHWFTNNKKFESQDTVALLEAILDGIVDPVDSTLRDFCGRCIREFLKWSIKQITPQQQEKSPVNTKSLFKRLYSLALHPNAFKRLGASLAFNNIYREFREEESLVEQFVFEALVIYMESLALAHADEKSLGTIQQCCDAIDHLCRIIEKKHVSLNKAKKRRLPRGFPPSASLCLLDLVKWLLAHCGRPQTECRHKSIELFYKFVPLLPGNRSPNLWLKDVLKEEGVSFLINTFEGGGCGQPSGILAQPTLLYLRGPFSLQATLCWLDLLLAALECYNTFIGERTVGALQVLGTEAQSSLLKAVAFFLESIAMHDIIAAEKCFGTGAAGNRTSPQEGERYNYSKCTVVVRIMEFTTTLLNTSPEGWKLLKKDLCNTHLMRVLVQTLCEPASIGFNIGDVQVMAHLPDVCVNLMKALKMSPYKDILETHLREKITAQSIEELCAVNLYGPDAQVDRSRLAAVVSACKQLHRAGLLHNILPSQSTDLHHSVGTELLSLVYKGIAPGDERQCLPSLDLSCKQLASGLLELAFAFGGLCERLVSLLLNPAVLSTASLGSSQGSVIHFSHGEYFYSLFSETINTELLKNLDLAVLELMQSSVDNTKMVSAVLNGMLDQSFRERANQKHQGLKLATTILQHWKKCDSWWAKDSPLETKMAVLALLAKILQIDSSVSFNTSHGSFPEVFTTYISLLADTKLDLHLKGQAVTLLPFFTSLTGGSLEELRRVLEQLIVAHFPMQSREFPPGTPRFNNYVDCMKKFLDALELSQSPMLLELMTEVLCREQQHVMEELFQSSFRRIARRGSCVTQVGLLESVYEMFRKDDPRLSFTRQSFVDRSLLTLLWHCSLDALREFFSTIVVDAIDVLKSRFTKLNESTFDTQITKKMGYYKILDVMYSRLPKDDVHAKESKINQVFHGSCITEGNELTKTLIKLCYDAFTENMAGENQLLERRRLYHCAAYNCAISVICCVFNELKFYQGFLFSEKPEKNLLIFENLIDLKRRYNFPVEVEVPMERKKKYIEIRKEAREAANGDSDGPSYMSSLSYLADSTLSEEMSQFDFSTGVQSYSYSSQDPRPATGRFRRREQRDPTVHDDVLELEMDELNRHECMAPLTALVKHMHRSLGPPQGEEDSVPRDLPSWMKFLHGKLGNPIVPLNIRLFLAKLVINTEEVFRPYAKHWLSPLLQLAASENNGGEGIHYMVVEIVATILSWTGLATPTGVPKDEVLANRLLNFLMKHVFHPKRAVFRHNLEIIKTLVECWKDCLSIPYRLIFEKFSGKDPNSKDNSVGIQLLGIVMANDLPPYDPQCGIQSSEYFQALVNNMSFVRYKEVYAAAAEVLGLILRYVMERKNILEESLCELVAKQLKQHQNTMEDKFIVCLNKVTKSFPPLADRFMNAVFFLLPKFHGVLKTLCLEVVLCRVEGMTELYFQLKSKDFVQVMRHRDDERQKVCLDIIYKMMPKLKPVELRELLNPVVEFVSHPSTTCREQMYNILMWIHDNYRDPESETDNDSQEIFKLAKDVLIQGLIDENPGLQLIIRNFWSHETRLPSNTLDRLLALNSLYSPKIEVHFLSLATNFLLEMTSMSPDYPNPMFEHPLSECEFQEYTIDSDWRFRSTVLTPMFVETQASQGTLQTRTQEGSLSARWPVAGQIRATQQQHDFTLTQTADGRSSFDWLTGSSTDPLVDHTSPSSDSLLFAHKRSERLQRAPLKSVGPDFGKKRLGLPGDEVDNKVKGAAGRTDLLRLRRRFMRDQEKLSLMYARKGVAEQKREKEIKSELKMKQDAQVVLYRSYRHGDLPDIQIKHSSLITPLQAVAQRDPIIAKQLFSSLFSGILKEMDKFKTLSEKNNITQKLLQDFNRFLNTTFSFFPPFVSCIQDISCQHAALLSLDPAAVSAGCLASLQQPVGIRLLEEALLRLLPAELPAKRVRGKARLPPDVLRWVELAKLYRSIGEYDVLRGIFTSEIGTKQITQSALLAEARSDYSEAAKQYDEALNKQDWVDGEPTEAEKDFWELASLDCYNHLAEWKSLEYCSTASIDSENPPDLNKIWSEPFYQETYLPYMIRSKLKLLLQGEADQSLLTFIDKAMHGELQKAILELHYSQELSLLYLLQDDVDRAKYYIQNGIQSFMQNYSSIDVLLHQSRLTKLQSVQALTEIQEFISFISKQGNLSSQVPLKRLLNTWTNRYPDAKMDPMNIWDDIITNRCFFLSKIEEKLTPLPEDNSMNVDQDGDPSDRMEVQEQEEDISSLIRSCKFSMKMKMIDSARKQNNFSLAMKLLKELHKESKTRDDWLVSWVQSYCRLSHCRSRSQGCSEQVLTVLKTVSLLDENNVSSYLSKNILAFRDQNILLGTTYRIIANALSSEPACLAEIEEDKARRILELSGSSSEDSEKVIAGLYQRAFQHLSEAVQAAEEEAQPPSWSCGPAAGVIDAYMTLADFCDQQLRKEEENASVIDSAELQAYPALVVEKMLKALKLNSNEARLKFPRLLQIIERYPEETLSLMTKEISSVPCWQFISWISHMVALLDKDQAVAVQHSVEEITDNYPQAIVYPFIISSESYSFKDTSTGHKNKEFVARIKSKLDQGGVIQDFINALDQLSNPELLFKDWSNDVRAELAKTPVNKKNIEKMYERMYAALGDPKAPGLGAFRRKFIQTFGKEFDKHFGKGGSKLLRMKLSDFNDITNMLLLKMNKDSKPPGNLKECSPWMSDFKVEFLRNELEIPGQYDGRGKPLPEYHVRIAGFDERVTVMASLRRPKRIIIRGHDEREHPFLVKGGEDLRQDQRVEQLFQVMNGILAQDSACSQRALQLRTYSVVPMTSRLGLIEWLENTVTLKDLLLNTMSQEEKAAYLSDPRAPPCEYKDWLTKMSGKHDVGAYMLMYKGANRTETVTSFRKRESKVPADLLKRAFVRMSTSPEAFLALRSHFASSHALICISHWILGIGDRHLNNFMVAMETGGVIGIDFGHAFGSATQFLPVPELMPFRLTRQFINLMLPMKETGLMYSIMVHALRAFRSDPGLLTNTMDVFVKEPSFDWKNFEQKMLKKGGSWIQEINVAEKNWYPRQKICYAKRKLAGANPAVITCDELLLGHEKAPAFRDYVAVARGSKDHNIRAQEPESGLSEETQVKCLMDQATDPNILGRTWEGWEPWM

target: DNA-PK (Homo sapiens, UniProt P78527); experiment: DNA-PK inhibition assay (radiometric 33P-ATP kinase assay); format: biochemical; conditions: 100 μM ATP; competitive tight-binding fit

Ki, ≤ 300 nM:
COc1cncc(-c2cc(NC[C@@H](C)c3ccnc4c3OCCO4)ncn2)c1 [Compound 532]
CNC(=O)c1c(F)cnc2c([C@H](C)CNc3cc(-c4cnc(NC5CCN(C)CC5)nc4)ncn3)cccc12 [Compound 1079]
COc1cc(NC(C)=O)ccc1C(C)CNc1cc(-c2ccc(C)nc2)ncn1 (stereo not drawn) [Compound 181]
COc1ccccc1CCNc1cc(-c2cnc3c(cnn3CCC(C)C)c2)ncn1 [Compound 45]
[2H]c1nc(C)nc([2H])c1-c1cc(NC[C@@H](C)c2cccc3c(C(=O)NC)c(F)cnc23)ncn1 [Compound 862]
CN1CCN(c2ccc(-c3cc(NCCc4cccc5c4OCC54CC4)ncn3)cn2)CC1 [Compound 75]
COc1cc(C#N)ccc1C(C)CNc1cc(-c2ccc(C)nc2)ncn1 (stereo not drawn) [Compound 124]
CNC(=O)c1ccnc2c([C@H](C)CNc3cc(-c4ccc(CC5CCN(CC(F)F)CC5)nc4)ncn3)cccc12 [Compound 1019]
CNC(=O)c1c(F)cnc2c([C@H](C)CNc3cc(-c4ccc(NC5CCN(C(C)=O)CC5)nc4)ncn3)cccc12 [Compound 1065]
CC(CNc1cc(-c2ccc(N3CCN(C)CC3)nc2)ncn1)c1cccc2cccnc12 (stereo not drawn) [Compound 236]
CCOc1ncc(-c2cc(NC[C@@H](C)c3cccc4c(C(=O)NC)ccnc34)ncn2)cc1C [Compound 950]
CNC(=O)c1ccnc2c([C@H](C)CNc3cc(-c4cnc(C#N)c(OC)c4)ncn3)cccc12 [Compound 924]
Cc1ccc(-c2cc(NCC(C)c3cc(F)cc4cccnc34)ncn2)cn1 (stereo not drawn) [Compound 306]
CNC(=O)c1c(F)cnc2c([C@H](C)CNc3cc(-c4ccc(C5CC5)nc4)ncn3)cccc12 [Compound 857]
COc1ccccc1CCNc1cc(-c2ccc(C(=O)N3CCCC3)cc2)ncn1 [Compound 13]
COc1ccccc1[C@H](C)CNc1cc(-c2ccnc(Nc3nn[nH]n3)c2)ncn1 [Compound 211]
CNC(=O)c1ccnc2c([C@H](C)CNc3cc(-c4ccc(C(N)=O)cc4)ncn3)cccc12 [Compound 759]
Cc1ccc(-c2cc(NC[C@@H](C)c3cccc4nccnc34)ncn2)cn1 [Compound 445]
CNC(=O)c1ccc([C@H](C)CNc2cc(-c3ccc(NC(C)COC)nc3)ncn2)c(OC)c1 (stereo partly drawn) [Compound 393]
[2H]c1nc(C)nc([2H])c1-c1cc(NC[C@@H](C)c2cccc3c(C(=O)NC)ncnc23)ncn1 [Compound 984, (S)—N-methyl-8-(1-((2′-methyl-4′,6′-dideutero-[4,5′-bipyrimidin]-6-yl)amino)propan-2-yl)quinazoline-4-carboxamide]
CNC(=O)c1ccc([C@H](C)CNc2cc(-c3ccc(N(C)C(C)C4CC4)nc3)ncn2)c(OC)c1 (stereo partly drawn) [Compound 341]
COc1cc(C(=O)NOCc2ccccc2)ccc1C(C)CNc1cc(-c2ccc(C)nc2)ncn1 (stereo not drawn) [Compound 222]
CNC(=O)c1ccc([C@H](C)CNc2cc(-c3ccc4c(c3)ncn4C)ncn2)c(OC)c1 [Compound 263]
CNC(=O)c1ccnc2c([C@H](C)CNc3cc(-c4ccc(CC5CCN(C)CC5)nc4)ncn3)cccc12 [Compound 989]
COc1ccccc1[C@H](C)CNc1cc(-c2ccnc(NCCCO)c2)ncn1 [Compound 206]
CCOc1ccccc1CCNc1cc(-c2ccc(N3CCN(CCO)CC3)nc2)ncn1 [Compound 94]
CNC(=O)c1ccnc2c([C@H](C)CNc3cc(-c4ccc(C)cc4C)ncn3)cccc12 [Compound 788]
CC(CNc1cc(-c2cnc3c(cnn3C3COC3)c2)ncn1)c1cncc2c1OCC2 (stereo not drawn) [Compound 420]
CNC(=O)c1ccc([C@H](C)CNc2cc(-c3ccc(NC(C)CO)nc3)ncn2)c(OC)c1 (single isomer, unassigned) [Compound 357]
CNC(=O)c1c(F)cnc2c([C@H](C)CNc3cc(-c4ccc(NC5CCN(CC(F)F)CC5)nc4)ncn3)cccc12 [Compound 1084]
CC(CNc1cc(-c2ccc(C(=O)NCCC#N)cc2)ncn1)c1ccnc2cccnc12 (stereo not drawn) [Compound 431]
COc1cc(Br)ccc1C(C)CNc1cc(-c2ccc(C)nc2)ncn1 (stereo not drawn) [Compound 423]
CNC(=O)c1ccc(C(C)CNc2cc(-c3ccc(OCC4CC4)nc3)ncn2)c(OC)c1 (stereo not drawn) [Compound 326]
COC(=O)c1ccc(C(C)CNc2cc(-c3ccc(C)nc3)ncn2)c(OC2CCC2)c1 (stereo not drawn) [Compound 428]
CNC(=O)c1ccnc2c([C@H](C)CNc3cc(-c4ccc(C5(N)CC5)nc4)ncn3)ccc(F)c12 [Compound 940]
CNC(=O)c1c(F)cnc2c([C@H](C)CNc3cc(-c4cnc(C(C)C)nc4)ncn3)cccc12 [Compound 859]
CNC(=O)c1ccc([C@H](C)CNc2cc(-c3ccc(NCC4CC4)nc3)ncn2)c(OC)c1 [Compound 364]
COc1ccc(F)cc1CCNc1cc(-c2ccc(C)nc2)ncn1 [Compound 31]
Cc1ccc(-c2cc(NCC(C)c3ccncc3OC3CC3)ncn2)cn1 (stereo not drawn) [Compound 287]
CNC(=O)c1c(F)cnc2c([C@H](C)CNc3cc(-c4cnc(C(C)(C)OC)nc4)ncn3)cccc12 [Compound 930]
CNC(=O)c1ccnc2c([C@H](C)CNc3cc(-c4ccc(C5CCC5)nc4)ncn3)cccc12 [Compound 845]
CNC(=O)c1ccnc2c([C@H](C)CNc3cc(-c4ccc(C)nc4)ncn3)ccnc12 [Compound 624]
CC(CNc1cc(-c2cnc3c(cnn3CCO)c2)ncn1)c1cc(F)c(F)cc1OC1CCC1 (stereo not drawn) [Compound 382]
Cc1ccc(-c2cc(NCC(C)c3cccc4cc(F)cnc34)ncn2)cn1 (stereo not drawn) [Compound 346]
Cc1ccc(-c2cc(NCC(C)c3cncc4c3OCC4)ncn2)cn1 (stereo not drawn) [Compound 418]
Cc1ccc(-c2cc(NCC(C)c3ccnc4c3OCCN4)ncn2)cn1 (stereo not drawn) [Compound 648]
CNC(=O)c1c(NC)cnc2c([C@H](C)CNc3cc(-c4ccc(C)nc4)ncn3)cccc12 [Compound 764]
CNC(=O)c1ccnc2c([C@H](C)CNc3cc(-c4ccc5c(c4)CCNC5)ncn3)cccc12 [Compound 802]
CNC(=O)c1ccc([C@H](C)CNc2cc(-c3ccc(NC(C)COC)nc3)ncn2)c(OC)c1 (single isomer, unassigned) [Compound 394]
CCOc1ncc(-c2cc(NC[C@@H](C)c3cccc4c(C(=O)NC)ccnc34)ncn2)cn1 [Compound 607]
COc1ccccc1[C@H](C)CNc1cc(-c2ccc(NCC(O)CO)nc2)ncn1 (single isomer, unassigned) [Compound 200]
CN1CCC(n2ncc3cc(-c4cc(NCCc5cccc6cccnc56)ncn4)cnc32)CC1 [Compound 171]
CNC(=O)c1ccnc2c([C@H](C)CNc3cc(-c4cncc(COC)c4)ncn3)cccc12 [Compound 840]
CC(=O)c1ccnc2c([C@H](C)CNc3cc(-c4ccc(C)nc4)ncn3)cccc12 [Compound 621]
